Data published in paper PMC9879999, “A phosphoinositide hub connects CLE peptide signaling and polar auxin efflux regulation” (Nature Communications, 2023).
Numbering of substitutions follows the chain as printed. In names and notes the source's numbering stands. These are yes or no findings as the source states them, for the method shown. Binding can be weak; no strength is given.

The chains behind the UniProt entries cited, without tags or fusion partners. Where a name states a change or a piece, a line headed by the entry shows the natural chain unless it says otherwise.
UniProt Q17TI5: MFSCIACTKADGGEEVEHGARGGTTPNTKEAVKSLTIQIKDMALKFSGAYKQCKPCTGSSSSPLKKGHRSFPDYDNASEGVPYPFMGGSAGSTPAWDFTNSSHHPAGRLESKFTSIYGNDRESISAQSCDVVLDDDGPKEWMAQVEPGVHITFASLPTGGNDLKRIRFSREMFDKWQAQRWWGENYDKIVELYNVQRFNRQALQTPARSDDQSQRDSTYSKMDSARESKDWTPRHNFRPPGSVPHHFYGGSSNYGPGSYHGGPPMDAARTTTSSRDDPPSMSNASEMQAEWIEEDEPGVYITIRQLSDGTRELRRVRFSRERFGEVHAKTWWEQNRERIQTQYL

B1: PHO…OSITOL-4-PHOSPHATE-5-KINASE 1 (PIP5K1) (enzyme, UniProt Q56YP2 1-752)
chain: MSDSEEDEEEEEASEVILSSVVQKKKKKNLRFGEEVERRDGLVLLAQSTPMVRSRSQGTTRRVTPTPLVDVEKPLPNGDLYIGSFSGGFPHGSGKYLWKDGCMYEGDWKRGKASGKGKFSWPSGATYEGEFKSGRMEGFGTFTGADGDTYRGTWVADRKHGHGQKRYANGDFYEGTWRRNLQDGRGRYVWRNGNQYTGEWRSGVISGKGLLVWPNGNRYEGLWENGIPKGNGVFTWSDGSSCVGAWNESNIMRSFFNGVEKNDLIVGNRKRSSVDSGAGSLGGEKVFPRICIWESDGEAGDITCDIIDNVEASMIYRDRISVDRDGFRQFKKNPCWFNGEAKKPGQTISKGHKKYDLMLNLQLGIRYSVGKHASIVRDLKQTDFDPKEKFWTRFPPEGTKTTPPHQSVDFRWKDYCPLVFRRLRELFQVDPAKYMLAICGNDALRELSSPGKSGSFFYLTQDDRFMIKTVKKSEVKVLLRMLPSYYKHVCQYENSLVTRFYGVHCVKPVGGQKTRFIVMGNLFCSEYRIQRRFDLKGSSHGRSTAKPEGEIDETTTLKDLDLNFSFRLQRNWYQELMKQIKRDCEFLEAERIMDYSLLVGVHFRDDNTGEKMGLSPFVLRSGRIDSYQNEKFMRGCRFLEAELQDMDRILAGRKPSIRLGANMPAKAERMARRSDFDQYSSGGASYPSHGEMYEVVLYFGVIDILQDYDITKKIEHAYKSLQADPASISAVDPKLYSKRFRDFISRIFIEEG
B2: PHO…OSITOL-4-PHOSPHATE-5-KINASE 2 (PIP5K2) (enzyme, UniProt Q8L796 1-754)
chain: MMREPLVSEEEEEEATEVLLVEKTKLCKRRGDEEKTEERRDDLLLLALTPMVRSKSQGTTRRVTPTPPPVDVEKPLPNGDLYMGTFSGGFPNGSGKYLWKDGCMYEGEWKRGKASGKGKFSWPSGATYEGEFKSGRMEGSGTFVGVDGDTYRGSWVADRKQGHGQKRYANGDYYEGTWRRNLQDGRGRYVWMNGNQYTGEWRNGVICGKGVLAWPNGNRYEGQWENGVPKGSGVFTWADGSSWIGSWNESSNLMRNFFDGIEKNELIVATRKRSSVDSGAGSLTGEKIFPRICIWESDGEAGDITCDIVDNVEASVIYRDRISIDKDGFRQFRKNPCCFSGEAKKPGETISKGHKKYDLMLNLQHGIRYSVGKHASVVRDLKQSDFDPSEKFWTRFPPEGSKTTPPHLSVDFRWKDYCPLVFRRLRELFTVDPADYMLAICGNDALRELSSPGKSGSFFYLTQDDRFMIKTVKKSEVKVLLRMLPSYYKHVCQYENTLVTRFYGVHCIKPVGGQKTRFIVMGNLFCSEYRIQRRFDLKGSSHGRYTSKPEGEIDETTTLKDLDLNFAFRLQRNWYQELMTQIKRDCEFLEAERIMDYSLLVGVHFRDDNTGDKMGLSPFVLRSGKIESYQSEKFMRGCRFLEAELQDMDRILAGRKPLIRLGANMPARAERMARRSDYDQYSSGGTNYQSHGEVYEVVLYFGIIDILQDYDISKKIEHAYKSLQADPASISAVDPKLYSRRFRDFISRIFIEDG
B3: PBS1-LIKE 34 (PBL34) (enzyme, UniProt Q9LFP7 1-493)
chain: MGLDAVKAKGNWKSEKPKETENKNHKKKNGDDNKSRNEEEEEGEASGCWVKFRFMIGCIPSKSDLDASSSSIYGSNCTVTTMESKSANEKSNDQPVGQVSSTTTTSNAESSSSTPVISEELNISSHLRKFTFNDLKLSTRNFRPESLLGEGGFGCVFKGWIEENGTAPVKPGTGLTVAVKTLNPDGLQGHKEWLAEINFLGNLLHPNLVKLVGYCIEDDQRLLVYEFMPRGSLENHLFRRSLPLPWSIRMKIALGAAKGLSFLHEEALKPVIYRDFKTSNILLDADYNAKLSDFGLAKDAPDEGKTHVSTRVMGTYGYAAPEYVMTGHLTSKSDVYSFGVVLLEMLTGRRSMDKNRPNGEHNLVEWARPHLLDKRRFYRLLDPRLEGHFSIKGAQKVTQLAAQCLSRDPKIRPKMSDVVEALKPLPHLKDMASSSYYFQTMQAERLKNGSGRSQGFGSRNGQHQPVFRTLSSPHGSSPYRHQIPSPKPKGATT
B4: PBS1-LIKE 35 (PBL35) (enzyme, UniProt Q9SRH7 1-490)
chain: MGFDSVKVMENWQSKTSNENEKKKKKRRRKKNNNVRNSEHYEEEANGCWVKFRYIVCCASSTSDVETSLTLSTSTVGSQSAIVQSNDQPVGPVSSTTTTSNAESSLSTPIISEELNIYSHLKKFSFIDLKLATRNFRPESLLGEGGFGCVFKGWVEENGTAPVKPGTGLTVAVKTLNPDGLQGHKEWLAEINYLGNLLHPNLVKLVGYCIEDDQRLLVYEFMPRGSLENHLFRRSLPLPWSIRMKIALGAAKGLSFLHEEALKPVIYRDFKTSNILLDGEYNAKLSDFGLAKDAPDEGKTHVSTRVMGTYGYAAPEYVMTGHLTSKSDVYSFGVVLLEMLTGRRSMDKNRPNGEHNLVEWARPHLLDKRRFYRLLDPRLEGHFSVKGAQKVTQLAAQCLSRDSKIRPKMSEVVEVLKPLPHLKDMASASYYFQTMQAERLKAGSGSGSGRGFGSRNGQPVFRTLSSPHGQAGSSPYRHQIPSPKPKGATT
B5: PBS1-LIKE 36 (PBL36) (enzyme, UniProt F4J0D2 1-476)
chain: MATKLESFKVVEKLGVEKGEKGKMMSKKKNVKKDGDESESGFWFRFKFIFSCISSRSKVDSSMNATAVIAEPKKVIEKLEGHPAPTKDTGCAESGSSTPLMSGELKYSSKLRIFMFNDLKLATRNFRPESLLGEGGFGCVFKGWIEENGTAPVKPGTGLTVAVKTLNPDGLQGHKEWLAEINFLGNLVHPSLVKLVGYCMEEDQRLLVYEFMPRGSLENHLFRRTLPLPWSVRMKIALGAAKGLAFLHEEAEKPVIYRDFKTSNILLDGEYNAKLSDFGLAKDAPDEKKSHVSTRVMGTYGYAAPEYVMTGHLTTKSDVYSFGVVLLEILTGRRSVDKSRPNGEQNLVEWVRPHLLDKKRFYRLLDPRLEGHYSIKGAQKATQVAAQCLNRDSKARPKMSEVVEALKPLPNLKDFASSSSSFQTMQPVAKNGVRTQGGGFVSRNGPPMRSLSSLNLPQASPYRYARQSPKPKGKEP
B6: kinase-dead PIP5K1 variant (K536A; 'iPIP5K1') (enzyme, UniProt Q56YP2 1-752)
chain: B1 chain with K536A
B7: BARELY ANY MERISTEM 3 (BAM3) kinase domain (domain or fragment, UniProt O65440 710-992)
chain: VKENHVIGKGGRGIVYKGVMPNGEEVAVKKLLTITKGSSHDNGLAAEIQTLGRIRHRNIVRLLAFCSNKDVNLLVYEYMPNGSLGEVLHGKAGVFLKWETRLQIALEAAKGLCYLHHDCSPLIIHRDVKSNNILLGPEFEAHVADFGLAKFMMQDNGASECMSSIAGSYGYIAPEYAYTLRIDEKSDVYSFGVVLLELITGRKPVDNFGEEGIDIVQWSKIQTNCNRQGVVKIIDQRLSNIPLAEAMELFFVAMLCVQEHSVERPTMREVVQMISQAKQPNTF
B8: kinase domain of CORYNE (CRN) (domain or fragment, UniProt Q9LYU7 118-401)
chain: SNGIQLLGSDLNGKYYKMVLDNGLVVAVKRLGSLEGVGSPESSSSKSVKRRLQKELELLAGLRHRNLMSLRAYVRESDEFSLVYDYMPNGSLEDVMNKVRTKEVELGWEIRLRVAVGIVKGLQYLHFSCETQILHYNLKPTNVMLDSEFEPRLADCGLAKIMPSSHTAVSCYSAPESSQSNRYTDKSDIFSFGMILGVLLTGRDPTHPFCEESASGGSLGQWLKHLQQSGEAREALDKTILGEEVEEDEMLMALRITIICLSDFPADRPSSDELVHMLTQLHSF
B9: D6 PROTEIN KINASE (D6PK) (enzyme, UniProt Q9FG74 1-498)
chain: MMASKTPEGSLTNSSQSMSINTLADQVSSSLSFADPSSDGKTGNSKINEQGESGKSSTCRPSTSSDISDESTCSSFSSSINKPHKANDVRWEAIQAVRTKHGGLGLNHFRLLKRLGCGDIGTVHLAELNGTRCYFAMKVMDKTALASRKKLLRAQTEREILQCLDHPFLPTLYSHFETEKFSCLVMEFCPGGDLHTLRQRQPGKRFTEQAAKFYVAEVLLAMEYLHMLGIIYRDLKPENVLVRDDGHVMLSDFDLSLRCTVSLSIVRSANVGSEGLSKNSVSCSQQPACIQQPSCISMAPTSCFGPRFFSSKSKKDKKPKTENGNHQVTPLPELVAEPTGARSMSFVGTHEYLAPEIIKGEGHGSAVDWWTFGIFLYELLFGKTPFKGSGNRATLFNVVGQPLRFPESPVVSFAARDLIRSLLVKEPQHRLAYKRGATEIKQHPFFEGVNWALVRCASPPEIPKPVDLEALNPTPTVPAAASSSVRSDQSNYLEFDFF

What follows are molecules tested against PAX N-terminus (Arabidopsis thaliana) (UniProt F4IV25) (assay: two-hybrid; Golden Yeast strain; pGBKT7 or pGADT7 vectors as baits or preys; tested on -Trp-Leu and -Trp-Leu-Ade-His medium; 3-AT added for BRX-related bait proteins).
With B1 the binding was “binds”.
In the case of B2, the binding is reported as “binds”.

What follows are molecules tested against PROTEIN KINASE ASSOCIATED WITH BRX (PAX) (Arabidopsis thaliana) in the same assay as above.
B3 was tested, and the binding was “no binding”.
B4 was tested, and the binding was “no binding”.
In the case of B5, the binding is reported as “no binding”.
B6 was tested, and the binding was “binds”.
In the case of B7, the binding is reported as “no binding”.
B8 was tested, and the binding was “no binding”.

Each molecule was assayed against BRX C-terminus (C-terminal 'BRX-domains' of BRX) (Arabidopsis thaliana) (UniProt Q17TI5) in the same assay as above.
With B3 the binding was “binds”.
With B4 the binding was “binds”.
In the case of B5, the binding is reported as “binds”.
With B1 the binding was “binds”.
In the case of B2, the binding is reported as “binds”.
With B9 the binding was “binds”.

Target: BRX C-terminus (C-terminal 'BRX-domains' of BRX) (Arabidopsis thaliana) (UniProt Q17TI5)
Assay: as above
Remark: another data set of the same source
“kinase domain of PAX (from UniProt F4IV25) (domain or fragment)” was tested, and the binding was “binds”.
